Data taken from paper PMC8911475, “Insight into the Phylogeny and Binding Ability of WRKY Transcription Factors”.
A weaker result is weaker than the reference pair of the same experiment. Protein sequences can lack the tags named with them.

Molecular target: T1, WRKY54 DBD (Arabidopsis thaliana) (UniProt Q93WU8)
T1 sequence (looked up): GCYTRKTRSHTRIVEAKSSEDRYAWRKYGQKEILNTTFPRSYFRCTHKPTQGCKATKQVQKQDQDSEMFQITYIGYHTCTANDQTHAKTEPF
Experiment: EMSA
Conditions: QCM: 30 mM HEPES pH 7.5, 0.5 M NaCl, 2 mM TCEP, 25 °C, biotin-dsDNA on avidin; fEMSA: 30 min incubation in the dark, native PAGE 4 °C 120 V 90 min, buffer not stated; recombinant protein; residues 133-224; protein details: N-term MBP + thrombin site, C-term 12xHis; label: 5' fluorescein (fEMSA), 5' biotin (QCM)

ATTTGTTGACTA (double strand) [T12]: binds more weakly.
